# Primary screen of a compound library

Protein sequences, listed by entry. Tags and fused reporters are not part of them.
UniProt E9BF75, entry or part of it: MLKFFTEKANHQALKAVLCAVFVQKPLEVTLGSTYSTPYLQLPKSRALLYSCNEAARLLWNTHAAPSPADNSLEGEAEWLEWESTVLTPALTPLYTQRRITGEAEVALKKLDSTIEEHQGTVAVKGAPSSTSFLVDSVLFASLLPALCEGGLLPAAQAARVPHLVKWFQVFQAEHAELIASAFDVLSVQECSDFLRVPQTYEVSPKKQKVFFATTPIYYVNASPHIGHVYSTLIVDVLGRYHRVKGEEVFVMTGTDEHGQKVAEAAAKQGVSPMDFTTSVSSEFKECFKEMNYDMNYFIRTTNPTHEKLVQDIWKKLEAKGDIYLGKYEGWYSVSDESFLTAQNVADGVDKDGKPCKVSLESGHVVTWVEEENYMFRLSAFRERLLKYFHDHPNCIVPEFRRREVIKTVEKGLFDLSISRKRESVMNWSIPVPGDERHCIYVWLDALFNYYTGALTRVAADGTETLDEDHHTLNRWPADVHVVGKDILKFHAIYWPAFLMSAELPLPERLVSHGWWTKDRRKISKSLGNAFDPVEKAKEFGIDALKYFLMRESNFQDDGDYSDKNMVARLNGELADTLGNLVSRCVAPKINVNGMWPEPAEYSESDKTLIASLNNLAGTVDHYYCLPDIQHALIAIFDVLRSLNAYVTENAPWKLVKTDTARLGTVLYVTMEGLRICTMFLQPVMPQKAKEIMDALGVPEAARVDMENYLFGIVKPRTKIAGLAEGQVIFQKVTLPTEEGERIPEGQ

From ChEMBL document CHEMBL3988442, “University of Dundee, Small-Polar-MMV Screening Library” (2021).

All values are in %.
The record does not define 0% and 100%; most values in the screen are far below 50% and negative numbers occur (in some assays of this library far below -100).
The compounds are a random part of those screened.

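Methionyl-tRNA synthetase (putative), Leishmania donovani (UniProt E9BF75). Primary screen of methionyl-tRNA synthetase; the read-out is not stated. The test concentration is not given. The values are filed as inhibition. Size under these conditions: about 68,000 compounds, about 24 of them at 50% or above in at least one test.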

- CS(=O)(=O)NC1CCN(C(=O)c2cc3ccccc3s2)C1 (centres unmarked) : 13.17%
- Cc1cnn(CC2CCCN2C(=O)c2ccc(F)cc2Cl)c1 (centres unmarked) : 16.94%
- Cc1cccc(OCCN2CCN(Cc3cnn(CCO)c3)CC2)c1 : 15.56%
- O=C(NC1CCS(=O)(=O)C1)c1cc(Sc2ncccn2)ccn1 (centres unmarked) : 4.348%
- Cc1cc(C)cc(CN2C[C@@H]3OCCN(S(=O)(=O)N(C)C)[C@@H]3C2)c1 : 11.42%
- O=C(Nc1nc[nH]n1)c1cc(-c2ccc(F)cc2)n[nH]1 : 7.859%
- O=C(NCCc1cccnc1)c1cn(CCN2CCNCC2)nn1 : 3.922%
- CC(C)Cc1ncc(CNc2cnccc2CO)s1 : 121.1%
- Cc1cnn(CCNc2ncnc3c2CCN(CC2CCOC2)CC3)c1 (centres unmarked) : 10.13%
- CCOC1CC2(CCN(Cc3cccn3C)CC2)C1 : 10.96%
- COc1cccc(C(=O)NCc2ccccc2S(=O)(=O)N(C)CCO)c1 : 8.675%
- COCCOCC(=O)NC1CCN(c2ccccn2)CC1 : 7.551%
- CC(C)c1nc(CN2CCN(C(=O)CN3CCOCC3)CC2)no1 : 0%
- Cc1cnc(N2CCOCC3(CCN(c4ccccn4)C3)C2)nc1 (centres unmarked) : 7.205%
- COc1ccc(CS(=O)(=O)CC(=O)NCC2CC2)cc1F : 12.68%
- Cc1n[nH]c(C)c1CCC(=O)NCC1COc2ccccc2C1 (centres unmarked) : 17.63%
- CC(C)(C)c1cn2nc(N3CCOC(Cn4cncn4)C3)sc2n1 (centres unmarked) : 11.66%
- Cc1ncc(C(=O)N2CCCN(Cc3ccccc3F)CC2)c(O)n1 : 9.483%
- COc1cccc(-c2cc(C(=O)NCCCn3cnnc3)[nH]n2)c1 : 17.31%
- CCS(=O)(=O)N1CCC2(CCCN(c3ncc(F)cn3)C2)C1 (centres unmarked) : 8.271%
- O=C(CN1CCCC1c1nc(-c2ccccc2)no1)N1CCOCC1 (centres unmarked) : 0.4819%
- CC(O)CN1CC(C)(C)CN(C(=O)CCc2ccccc2)CC1=O (centres unmarked) : 6.849%
- Cc1nnc2n1CCN(C(=O)c1cn(-c3ccc(F)cc3)nn1)C2 : 17.18%
- CS(=O)(=O)NCc1cc(-c2cc(F)cc(F)c2)nc(N2CC[C@H](O)C2)n1 : 14.81%
- CC(O)CC(C)(C)CNC(=O)NCc1cccc(-n2ccnc2)c1 (centres unmarked) : 13.75%
- Cc1n[nH]c(C)c1CN1CC[C@@H]2[C@@H](CCC(=O)N2CCc2c[nH]cn2)C1 : 19.86%
- Fc1ccc(OCc2nnc([C@H]3CCN(Cc4cccnc4)C3)o2)cc1 : 6.044%
- COCCn1ccnc1C1CCCN(C(=O)c2ccccc2C#N)C1 (centres unmarked) : 9.677%
- COCC1COCCC12CCN(C(=O)COc1ccccc1)CC2 (centres unmarked) : 15.85%
- Cc1ccc(C(C)NC(=O)N2CCN(C(=O)CC(F)(F)F)CC2)o1 (centres unmarked) : 16.99%
- COc1cc2cc(C(=O)N[C@@H](C)C(=O)O)n(C)c2c(OC)c1OC : 14.52%
- O=C(c1c(O)cnc2ccccc12)N1CCN(CC(F)F)CC1 : 12.32%
- CNC(=O)c1ccc(NC(=O)NC(C)c2cc(C)oc2C)c(C)c1 (centres unmarked) : 16.42%
- CC(=O)NC1CCCN(C(=O)NCc2cccnc2N(C)C)C1 (centres unmarked) : 20.98%
- CC(C)c1nc2n(n1)CC(NCC(=O)N(C)Cc1cccs1)CC2 (centres unmarked) : 2.439%
- COCCC1(C(=O)O)CCCN(Cc2cc3c(cc2Cl)OCO3)C1 (centres unmarked) : 7.258%
- CCSCCC(=O)NCc1cnn(-c2ccc(F)cc2F)c1 : -1.393%
- CC(CO)(NC(=O)NCCc1ccc(Br)s1)C1CC1 (centres unmarked) : 8.873%
- Cc1ccc2cc(C(=O)N3CCN(C(=O)c4ccoc4)CC3)[nH]c2c1 : 13.52%
- O=C(Nc1ccc(CC(=O)N2CCSCC2)cc1)NC1CC1 : -0.2688%
- CC(=O)N(Cc1ncc(C)o1)C1CCN(CCc2cccs2)C1 (centres unmarked) : 10.89%
- COCCC(=O)Nc1ccnc(Oc2ccccc2)c1 : 7.746%
- CC(C)N1CC(n2ccnc2-c2nccn2C)CC1=O (centres unmarked) : -6.138%
- Cc1oc(C(C)C)cc1C(=O)N1C[C@H]2CC[C@@H]1CN(S(=O)(=O)N(C)C)C2 : 1.031%
- Cc1nccn1CC1CCN(C(=O)c2ccccc2)CC1 : 11.78%
- CC(C)CCC(=O)Nc1ccc2oc(=O)n(CCN(C)C)c2c1 : 20.16%
- O=c1c2cccnc2cnn1CC(O)c1cccc(C(F)(F)F)c1 (centres unmarked) : 7.519%
- CN(C)c1nccnc1N1CC[C@@]2(O)CCNC[C@H]2C1 : 3.553%
- CCC1c2ccccc2CCN1CCCS(C)(=O)=O (centres unmarked) : 5.866%

Repeated from the top, 3 entries:

SMILES	inhibition
CS(=O)(=O)NC1CCN(C(=O)c2cc3ccccc3s2)C1 (centres unmarked)	13.17%
Cc1cnn(CC2CCCN2C(=O)c2ccc(F)cc2Cl)c1 (centres unmarked)	16.94%
Cc1cccc(OCCN2CCN(Cc3cnn(CCO)c3)CC2)c1	15.56%